In PMC3681934:
No constants are given. Whether binding was seen depends on the method and setting. In cells and extracts the contact can be indirect. These calls come from enrichment with a bait or labelling near it, and not all partners need be listed. Tags and fused reporters may be left off the sequences shown.

Sequences of proteins named here, by UniProt entry; tags and fusion partners are left off.
UniProt P16054: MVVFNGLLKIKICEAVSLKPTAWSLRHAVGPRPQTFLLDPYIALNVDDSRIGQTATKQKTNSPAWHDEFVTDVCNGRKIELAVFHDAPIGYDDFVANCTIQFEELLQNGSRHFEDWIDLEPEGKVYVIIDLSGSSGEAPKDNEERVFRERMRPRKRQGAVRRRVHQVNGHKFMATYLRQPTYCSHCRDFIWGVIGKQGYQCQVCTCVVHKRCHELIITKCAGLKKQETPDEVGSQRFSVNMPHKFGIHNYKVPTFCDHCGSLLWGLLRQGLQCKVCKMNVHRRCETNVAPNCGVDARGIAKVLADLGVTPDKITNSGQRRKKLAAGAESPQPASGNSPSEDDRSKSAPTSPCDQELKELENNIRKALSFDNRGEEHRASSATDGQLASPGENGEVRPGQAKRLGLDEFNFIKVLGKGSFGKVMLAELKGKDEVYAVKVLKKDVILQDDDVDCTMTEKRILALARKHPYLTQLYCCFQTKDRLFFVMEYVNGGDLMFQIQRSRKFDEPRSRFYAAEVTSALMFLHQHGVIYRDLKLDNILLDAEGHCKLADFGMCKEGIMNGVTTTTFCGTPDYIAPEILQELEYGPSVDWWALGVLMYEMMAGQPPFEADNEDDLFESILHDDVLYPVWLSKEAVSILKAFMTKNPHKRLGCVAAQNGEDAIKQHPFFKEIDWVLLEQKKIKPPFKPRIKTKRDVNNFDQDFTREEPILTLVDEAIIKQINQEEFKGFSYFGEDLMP
UniProt Q9Z1R2: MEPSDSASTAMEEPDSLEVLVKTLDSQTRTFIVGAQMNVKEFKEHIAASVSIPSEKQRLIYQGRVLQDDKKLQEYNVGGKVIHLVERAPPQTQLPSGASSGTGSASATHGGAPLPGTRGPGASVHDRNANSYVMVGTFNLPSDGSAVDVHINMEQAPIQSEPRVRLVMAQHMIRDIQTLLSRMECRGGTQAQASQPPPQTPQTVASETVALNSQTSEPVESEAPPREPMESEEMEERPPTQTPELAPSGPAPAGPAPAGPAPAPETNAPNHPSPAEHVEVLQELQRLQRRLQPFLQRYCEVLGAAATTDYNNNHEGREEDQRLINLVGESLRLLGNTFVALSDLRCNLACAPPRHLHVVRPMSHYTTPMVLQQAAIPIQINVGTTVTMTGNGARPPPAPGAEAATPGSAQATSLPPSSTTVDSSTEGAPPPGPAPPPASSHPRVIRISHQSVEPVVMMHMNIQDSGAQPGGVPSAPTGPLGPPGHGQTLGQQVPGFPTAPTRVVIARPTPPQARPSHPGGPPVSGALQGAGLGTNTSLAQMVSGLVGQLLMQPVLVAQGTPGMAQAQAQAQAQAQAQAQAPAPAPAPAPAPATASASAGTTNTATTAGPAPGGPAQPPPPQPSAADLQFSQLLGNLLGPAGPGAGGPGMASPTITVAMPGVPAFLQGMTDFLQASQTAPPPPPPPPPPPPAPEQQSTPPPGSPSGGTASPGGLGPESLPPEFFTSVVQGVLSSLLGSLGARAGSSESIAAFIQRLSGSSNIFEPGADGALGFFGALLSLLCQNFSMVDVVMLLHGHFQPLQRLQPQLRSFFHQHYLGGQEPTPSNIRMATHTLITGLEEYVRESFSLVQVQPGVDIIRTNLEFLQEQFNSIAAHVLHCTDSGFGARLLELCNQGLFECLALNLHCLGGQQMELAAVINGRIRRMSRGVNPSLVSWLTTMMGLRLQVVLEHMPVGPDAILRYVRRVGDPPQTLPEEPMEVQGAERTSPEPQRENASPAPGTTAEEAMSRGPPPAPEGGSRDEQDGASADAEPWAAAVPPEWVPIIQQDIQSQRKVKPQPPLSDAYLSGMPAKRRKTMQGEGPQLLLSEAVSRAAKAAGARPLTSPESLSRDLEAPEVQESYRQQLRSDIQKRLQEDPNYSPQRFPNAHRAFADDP
UniProt Q62261: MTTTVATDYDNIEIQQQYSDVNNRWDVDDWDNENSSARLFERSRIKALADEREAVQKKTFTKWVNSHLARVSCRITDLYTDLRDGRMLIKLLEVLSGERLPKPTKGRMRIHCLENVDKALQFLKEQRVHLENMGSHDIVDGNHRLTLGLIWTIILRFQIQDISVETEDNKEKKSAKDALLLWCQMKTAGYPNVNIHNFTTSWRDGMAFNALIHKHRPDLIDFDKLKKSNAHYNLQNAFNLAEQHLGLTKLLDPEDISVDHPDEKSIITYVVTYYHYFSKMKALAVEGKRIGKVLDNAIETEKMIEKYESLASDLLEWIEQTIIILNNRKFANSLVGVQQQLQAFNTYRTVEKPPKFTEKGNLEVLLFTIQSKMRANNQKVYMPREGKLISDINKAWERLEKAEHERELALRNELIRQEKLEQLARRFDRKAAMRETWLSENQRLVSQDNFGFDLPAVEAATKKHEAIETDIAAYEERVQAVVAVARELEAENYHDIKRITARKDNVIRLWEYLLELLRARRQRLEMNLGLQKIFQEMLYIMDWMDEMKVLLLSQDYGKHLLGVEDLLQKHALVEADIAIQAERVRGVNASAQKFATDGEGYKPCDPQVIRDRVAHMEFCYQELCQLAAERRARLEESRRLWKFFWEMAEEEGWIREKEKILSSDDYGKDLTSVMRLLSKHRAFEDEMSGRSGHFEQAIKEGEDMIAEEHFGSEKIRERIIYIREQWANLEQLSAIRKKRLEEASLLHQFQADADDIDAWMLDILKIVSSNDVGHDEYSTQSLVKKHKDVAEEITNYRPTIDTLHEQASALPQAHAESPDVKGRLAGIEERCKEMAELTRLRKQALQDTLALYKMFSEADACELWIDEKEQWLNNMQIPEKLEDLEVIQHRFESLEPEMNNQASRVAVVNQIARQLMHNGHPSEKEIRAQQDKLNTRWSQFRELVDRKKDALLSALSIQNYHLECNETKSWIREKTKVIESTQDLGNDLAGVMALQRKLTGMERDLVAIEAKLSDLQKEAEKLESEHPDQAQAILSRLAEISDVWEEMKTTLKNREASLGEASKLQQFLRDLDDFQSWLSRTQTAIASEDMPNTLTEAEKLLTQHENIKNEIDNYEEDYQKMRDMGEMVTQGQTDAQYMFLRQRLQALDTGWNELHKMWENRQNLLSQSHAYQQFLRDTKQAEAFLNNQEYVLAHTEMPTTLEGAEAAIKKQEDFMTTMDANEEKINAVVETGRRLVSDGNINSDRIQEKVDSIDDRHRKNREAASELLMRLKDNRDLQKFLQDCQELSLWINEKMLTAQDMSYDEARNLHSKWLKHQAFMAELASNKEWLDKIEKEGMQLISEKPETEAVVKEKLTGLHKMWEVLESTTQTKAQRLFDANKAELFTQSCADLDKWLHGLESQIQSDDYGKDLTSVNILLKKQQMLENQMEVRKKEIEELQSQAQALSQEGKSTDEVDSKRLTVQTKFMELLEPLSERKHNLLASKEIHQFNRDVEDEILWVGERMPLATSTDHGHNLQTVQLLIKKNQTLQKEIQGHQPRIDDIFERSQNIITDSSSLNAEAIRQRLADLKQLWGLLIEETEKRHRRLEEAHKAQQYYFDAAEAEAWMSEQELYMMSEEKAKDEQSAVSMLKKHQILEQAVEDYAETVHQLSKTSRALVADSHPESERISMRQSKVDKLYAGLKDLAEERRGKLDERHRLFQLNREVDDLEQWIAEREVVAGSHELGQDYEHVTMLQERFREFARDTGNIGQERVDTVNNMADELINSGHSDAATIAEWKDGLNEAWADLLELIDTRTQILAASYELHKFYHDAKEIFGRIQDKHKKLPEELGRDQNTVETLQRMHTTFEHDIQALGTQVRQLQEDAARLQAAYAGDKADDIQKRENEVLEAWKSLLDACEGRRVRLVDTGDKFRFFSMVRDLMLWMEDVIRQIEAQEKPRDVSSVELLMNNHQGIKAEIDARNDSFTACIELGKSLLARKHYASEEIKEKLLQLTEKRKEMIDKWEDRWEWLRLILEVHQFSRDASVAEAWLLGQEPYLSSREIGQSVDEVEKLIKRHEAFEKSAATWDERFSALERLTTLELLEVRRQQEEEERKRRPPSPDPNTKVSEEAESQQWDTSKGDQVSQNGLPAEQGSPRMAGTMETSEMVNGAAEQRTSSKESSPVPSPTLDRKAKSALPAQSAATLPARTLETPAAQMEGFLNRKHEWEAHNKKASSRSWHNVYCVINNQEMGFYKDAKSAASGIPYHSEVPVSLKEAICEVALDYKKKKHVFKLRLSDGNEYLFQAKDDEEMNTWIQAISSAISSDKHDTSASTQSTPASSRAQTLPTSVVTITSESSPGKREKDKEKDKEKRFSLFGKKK

T1: IL1RAPL1-ICD fused with maltose-binding protein (entire cytoplasmic domain of mouse IL1RAPL1, residues 379-696) (mouse) (UniProt P59823)
T1 sequence: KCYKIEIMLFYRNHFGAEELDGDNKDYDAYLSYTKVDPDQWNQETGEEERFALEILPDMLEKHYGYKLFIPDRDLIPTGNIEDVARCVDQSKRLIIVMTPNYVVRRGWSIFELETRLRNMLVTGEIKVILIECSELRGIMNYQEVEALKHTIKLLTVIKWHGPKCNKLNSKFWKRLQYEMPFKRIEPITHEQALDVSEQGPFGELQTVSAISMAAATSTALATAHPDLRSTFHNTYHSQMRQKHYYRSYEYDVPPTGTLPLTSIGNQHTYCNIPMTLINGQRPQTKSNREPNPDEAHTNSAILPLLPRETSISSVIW

B1: phospholipase C β1 (endogenous, mouse forebrain) (enzyme, UniProt Q9Z1B3 1-1216)
chain: MAGAQPGVHALQLKPVCVSDSLKKGTKFVKWDDDSTIVTPIILRTDPQGFFFYWTDQNKETELLDLSLVKDARCGKHAKAPKDPKLRELLDVGNIGHLEQRMITVVYGPDLVNISHLNLVAFQEEVAKEWTNEVFSLATNLLAQNMSRDAFLEKAYTKLKLQVTPEGRIPLKNIYRLFSADRKRVETALEACSLPSSRNDSIPQEDFTPDVYRVFLNNLCPRPEIDNIFSEFGAKSKPYLTVDQMMDFINLKQRDPRLNEILYPPLKQEQVQVLIEKYEPNSSLAKKGQMSVDGFMRYLSGEENGVVSPEKLDLNEDMSQPLSHYFINSSHNTYLTAGQLAGNSSVEMYRQVLLSGCRCVELDCWKGRTAEEEPVITHGFTMTTEISFKEVIEAIAECAFKTSPFPILLSFENHVDSPKQQAKMAEYCRLIFGDALLMEPLEKYPLESGVPLPSPMDLMYKILVKNKKKSHKSSEGSGKKKLSEQASNTYSDSSSVFEPSSPGAGEADTESDDDDDDDDCKKSSMDEGTAGSEAMATEEMSNLVNYIQPVKFESFEISKKRNKSFEMSSFVETKGLEQLTKSPVEFVEYNKMQLSRIYPKGTRVDSSNYMPQLFWNAGCQMVALNFQTVDLAMQINMGMYEYNGKSGYRLKPEFMRRPDKHFDPFTEGIVDGIVANTLSVKIISGQFLSDKKVGTYVEVDMFGLPVDTRRKAFKTKTSQGNAVNPVWEEEPIVFKKVVLPSLACLRIAAYEEGGKFIGHRILPVQAIRPGYHYICLRNERNQPLTLPAVFVYIEVKDYVPDTYADVIEALSNPIRYVNLMEQRAKQLAALTLEDEEEVKKEADPGETSSEAPSETRTTPAENGVNHTASLAPKPPSQAPHSQPAPGSVKAPAKTEDLIQSVLTEVEAQTIEELKQQKSFVKLQKKHYKEMKDLVKRHHKKTTELIKEHTTKYNEIQNDYLRRRAALEKSAKKDSKKKSEPSSPDHGSSAIEQDLAALDAEMTQKLIDLKDKQQQQLLNLRQEQYYSEKYQKREHIKLLIQKLTDVAEECQNNQLKKLKEICEKEKKELKKKMDKKRQEKITEAKSKDKSQMEEEKTEMIRSYIQEVVQYIKRLEEAQSKRQEKLVEKHNEIRQQILDEKPKLQTELEQEYQDKFKRLPLEILEFVQEAMKGKISEDSNHGSAPPSLASDAAKVNLKSPSSEEIERENPGREFDTPL
B2: Snap91 (endogenous, mouse forebrain) (protein, UniProt Q61548 1-901)
chain: MSGQTLTDRIAAAQYSVTGSAVARAVCKATTHEVMGPKKKHLDYLIQATNETNVNIPQMADTLFERATNSSWVVVFKALVTTHHLMVHGNERFIQYLASRNTLFNLSNFLDKSGSHGYDMSTFIRRYSRYLNEKAFSYRQMAFDFARVKKGADGVMRTMVPEKLLKSMPILQGQIDALLEFDVHPNELTNGVINAAFMLLFKDLIKLFACYNDGVINLLEKFFEMKKGQCKDALEIYKRFLTRMTRVSEFLKVAEQVGIDKGDIPDLTQAPSSLMETLEQHLNTLEGKKPGNNEGSGAPSPLSKSSPATTVTSPNSTPAKTIDTSPPVDIFATASAAAPVSSAKPSSDLLDLQPDFSGAAAGAAAPVVPPSGGATAWGDLLGEDSLAALSSVPCEAPISDPFAPEPSPPTTTTEPASASASTTTAVTAVTTEVDLFGDAFAASPGEAPAASEGATAPATPAPVAAALDACSGNDPFAPSEGSAEAAPELDLFAMKPPETSAPVVTPTASTAPPVPATAPSPAPTAVAATAATTTAAAAATTTATTSAAAATTAAAPPALDIFGDLFDSAPEVAAAPKPDAAPSIDLFGTDAFSSPPRGASPVPESSLTADLLSVDAFAAPSPASTASPAKAESSGVIDLFGDAFGSGASETQPAPQAVSSSSASADLLAGFGGSFMAPSTTPVTPAQNNLLQPSFEAAFGTTPSTSSSSSFDPSVFDGLGDLLMPTMAPSGQPAPVSMVPPSPAMAASKGLGSDLDSSLASLVGNLGISGTTSKKGDLQWNAGEKKLTGGANWQPKVTPATWSAGVPPQGTVPPTSSVPPGAGAPSVGQPGAGFGMPPSGTGMTMMSQQPVMFAQPMMRPPFGAAAVPGTQLSPSPTPATQSPKKPPAKDPLADLNIKDFL
B3: Snap-25-interacting protein (endogenous, mouse forebrain) (protein, UniProt Q9QWI6 1-1250)
chain: MQPWQCLRRFALAWWERTAEGRARSPREEVGPRDPGGRGEPDPERSSPPMLSADDAEYPREYRTLGGGGGGGSGGRRFSNVGLVHTSERRHTVIAAQSLEALSGLQKADADRKRDAFMDHLKSKYPQHALALRGQQDRMREQVGGWTVDPVCLLSSLCSHLHGDSTPSGAGQPAQQPNYWSFKTRSSRHTQGAQPGLADQAAKLSYASAESLETMSEAELPLGFSRMNRFRQSLPLSRSASQTKLRSPGVLFLQFGEETRRVHITHEVSSLDTLHALIAHMFPQKLTMGMLKSPNTAILIKDEARNVFYELEDVRDIQDRSIIKIYRKEPLYAAFPGSHLTNGDLRREMVYASRESSPTRRLNNLSPASHLASSSPPPGLPSGLPSGLPSGSPSRSRLSYAGGRPPSYAGSPVHHAAERLGGAPTGQGVSPSPSAILERRDVKPDEDLAGKAGGMVLVKGEGLYADPYGLLHEGRLSLAAAAETHSHTRARAACTSGVPCALSAPTPLPRCSPTWRTRCTRRALAALYGDGYGFRLPPSSPQKLADVSAPSGGPPPPHSPYSGPPSRGSPVRQSFRKDSGSSSVFAESPGGKARSTGSASTAGAPPSELFPGPGERSLVGFGPPVPAKDTETRERMEAMEKQIASLTGLVQSALLRGSEPETPSEKVEGSNGAATPSAPVCGSGSKSSGATPVSGPPPPSASSTPAGQPTAVSRLQMQLHLRGLQNSASDLRGQLQQLRNVQLQNQESVRALLKPTEADVSMRVSEAARRQEDPLQRQRTLVEEERLRYLNDEELITQQLNDLEKSVEKIQRDVAHNHRLMPGPELEEKALVLKQLGETLTELKAHFPGLQSKMRVVLRVEVEAVKFLKEEPQRLDGLLKRCRGVTDTLAQIRRQVDEGMWPPPNNLLNQSPKKVAAETDFSKGLDFEIPPPSPPLNLHELSGPAEGTPLTPKSTNPTKCLDASSKRNTDKAVSVEAAERDWEEKRAALTQYSAKDINRLLEETQAELLKAIPDLDCASKTHPGPAPTPDHKPPKAPHGQKAAPRTEPSGRRGSDELTVPRYRTEKPSKSPPPPPPRRSFPSSHGLTTTRTGEVVVTSKKDSVFIKKAESEELEVQKPQVKLRRAVSEVVRPASTPPIMASAIKDEDDEERIIAELESGGSSVPPMKVVTPGASRLKAAQGPAGSPDKGKHGKQRTEYMRIQAQQQATKPSKEVSGPNETSSPGSEKPSGSRTSIPVLTSFGARNSSISF
B4: MCF.2 cell line derived transforming sequence-like (endogenous, mouse forebrain) (protein, UniProt Q64096 1-1149)
chain: MSDCWCFIFCKEHVRSNPLSPQHDGASREEADHQVDVSDGIRLVPDKAEATAATASDEIMHQDIVPLCAADIQEQLKKRFAYLSGGRGQDGSPVITFPDYPAFSEIPDKEFQNVMTYLTSIPSLQDAGIGFILVIDRRQDKWTSVKASVLRIAASFPANLQLVLVLRPTGFFQRTLSDIAFKFNRDEFKMKVPVMMLSSVPELHGYIDKSQLTEDLGGTLDYCHSRWLCHRTAIESFALMVKQTAQMLQAFGTELAETELPNDVQSTSLVLSAHTEKKAKVKEDLQLALKEGNSILESLREPLAESAAHSVNQDQLDNQATVQRLLAQLNETEAAFDEFWAKHQQKLEQCLQLRHFEQGFREVKTTLDSMSQKIAAFTDVGNSLAHVQHLLKDLTAFEEKSSVAVDKARALSLEGQQLIENRHYAVDSIHPKCEELQHLCDHFASEVTRRRGLLSKSLELHSLLETSMKWSDEGIFLLASQPVDKCQSQDGAEAALQEIEKFLETGAENKIQELNEIYKEYECILNQDLLEHVQKVFQKQESTEEMFHRRQASLKKLAAKQTRPVQPVAPRPEALTKSPSPSPGSWRSSENSSSEGNALRRGPYRRAKSEMSEPRQGRTSSTGEEEESLAILRRHVMNELLDTERAYVEELLCVLEGYAAEMDNPLMAHLISTGLQNKKNILFGNMEEIYHFHNRNIPAGLESCIDCPELVGRCFLERMEEFQIYEKYCQNKPRSESLWRQCSDCPFFQECQKKLDHKLSLDSYLLKPVQRITKYQLLLKEMLKYSKHCEGAEDLQEALSSILGILKAVNDSMHLIAITGYDGNLGDLGKLLMQGSFSVWTDHKKGHTKVKELARFKPMQRHLFLHEKAVLFCKKREENGEGYEKAPSYSYKQSLNMTAVGITENVKGDTKKFEIWYNAREEVYIIQAPTPEIKAAWVNEIRKVLTSQLQACREASQHRALEQSHSLPLPTPSSTSPTKGNTRNVKKLEDRKTDPLSLEGYVSSSLPKPPEKGKGWSKTSHSLEAPEEDGGWSSAEELINSSDAEEDGGVGPKKLVPGKYTVVMDDEKGGPDTLAMRSGDMVEVVEEGAEGLWYVRDLTSSKEGWVPASSLSTLLGKSSSAQCLSSSGKIHCARQLCPEPAEILSPEPV
B5: Ras protein activator like 1 (endogenous, mouse forebrain) (protein, UniProt Q9Z268 1-799)
chain: MAKSGSLSIRVVEGRALPAKDVSGSSDPYCLVKVDDQVVARTATIWRSLSPFWGEEYTVHLPLDFHHLAFYVLDEDTVGHDDIIGKISLSKEAITADPRGIDSWINLSRVDPDAEVQGEVCLDVKLLEDARGRCLRCHVRQARDLAPRDISGTSDPFARVFWGNHSLETSTIKKTRFPHWDEVLELREAPGTTSPLRVELWDWDMVGKNDFLGMVEFTPQTLQQKPPNGWFRLLPFPRAEDSGGSLGALRLKVRLTEDRVLPSQYYQPLMELLLESVQGPAEEDTTSPLALLEELASGDCRQDLATKLVKLFLGRGLAGPFLDYLTRREVARTNDPNTLFRSNSLASKSMEQFMKLVGMRYLHEVLRPVISRVFEEKKYMELDPCKMDLNRSRRISFKGTPTEEQVRETSLGLLTGYLGSVVDAIVSSTGRCPLALRLAFKQLQRCVEKRFSGIEHQDVKYLAISGFLFLRFFAPAILTPKLFDLRDQHADPQTSRSLLLLAKAVQSIGNLGQQLGQGKEQWLAPLHPFLLQSISRVRDFLDQLVDVDEDEEAGGPACALVQPSTIVREGFLLKRKEEPGGLATRFAFKKRYFRLSGRDLSYSKTPEWQVHTSIPLSCIRAVEHVDEGAFQLPHVMQVVTQDGAGTSHTTYLQCKNVNDLNQWLSALRKASAPNPGKLVACHPGAFRSGRWTCCLQAERSAAGCSRTHSAITLGDWSDPLDPDAEAQAVYRQLLLGRDQLRLKLLEDSSLDTEVDPGRDSSATDGPCAEVLAQQRAATTHLLQVLEDLEQAHEEFQKRG

Molecular target: T1, IL1RAPL1-ICD fused with maltose-binding protein (entire cytoplasmic domain of mouse IL1RAPL1, residues 379-696) (mouse)
Assay: affinity purification with mass spectrometry; IL1RAPL1-ICD-MBP on amylose resin packed as affinity column; mouse forebrain proteins extracted in 2 M NaCl loaded; eluted with 0.5 M NaCl; SDS-PAGE, five bands stronger than in the MBP control analysed by LC-MS/MS; only the target purified

binding, binds:
protein kinase C ε (endogenous, mouse forebrain) (from UniProt P16054 1-737) (enzyme)
Bat3 (endogenous, mouse forebrain) (from UniProt Q9Z1R2 1-1154)
spectrin α2 (from UniProt P16546 1-2472)
spectrin β2 (from UniProt Q62261 1-2363)
B1
B2
B3
B4
B5
